At least one peptide structure holds a part that was inferred or is arguable (an end, a ring closure or a residue). Ends that are not written are not given here.
Test system: Pseudomonas aeruginosa strain H1001 fliC::luxCDABE
Assay: Luminescence-based assay for the non-cleaved (bound) peptides on cellulose membranes
Format: cell-based
Experimental: Luminescence-based MIC assay for the non-cleaved peptides on cellulose membranes. The peptide spots were punched out and transferred to a 96 well microtiter plate with a clear polystyrene bottom and opaque white polypropylene sides (PerkinElmer, Boston, USA). The spots were washed two times with 100% ethanol for 5 min and afterwards equilibrated five times with 100 mM Tris buffer pH 7.3 for 5 min. An overnight culture of Pseudomonas aeruginosa strain H1001 fliC::luxCDABE was diluted 1:50 in new MH medium and incubated at 37° C. to an OD600 of 0.35. This bacterial culture was diluted 1:25 into 10 mM Tris-HCl buffer, pH 7.3 containing 20 mM glucose. Fifty μl of this culture was added to all wells of the microtiter plate and incubated at 37° C. The luminescence of the strain produced by the ATP-dependent luciferase system was detected in a time dependent manner using a Tecan Spectra Fluor plus (Tecan, Austria). At the end of the experiment, the membranes were cleaned by washing the spots two times with 100% ethanol for five minutes. After removing the ethanol the membrane was air-dried.
Strains. For the killing assay a mini-Tn5-lux mutant in Pseudomonas aeruginosa H103 was used. The strain is called H1001 and contains a fliC::luxCDABE transcriptional fusion resulting in constitutive expression of luciferase. The bacterial strains used for the antimicrobial activity assays included Escherichia coli UB1005 (F-, nalA37, metB1), a wild-type Salmonella enterica ssp. Typhimurium (S. Typhimurium), wild-type Pseudomonas aeruginosa PAO1 strain H103, Enterococcus faecalis ATCC29212, Staphylococcus aureus ATCC25923, and a clinical isolate of Staphylococcus epidermidis obtained from Dr. D. Speert (Department of Medicine, University of British Columbia). Antifungal activity was tested using a lab isolate of Candida albicans obtained from Dr. B. Dill (Department of Microbiology and Immunology, University of British Columbia).
The same set of peptides, as well as the reversed sequence of Bac2A-R ([…]; SEQ ID NO: 2166), were synthesized on cellulose and left uncleaved. The production of light was initially compared in wells containing spots of Bac2A, Bac2A-R (with the reversed sequence of Bac2A), the unrelated negative-control peptide, or, as additional controls, only cellulose, or only bacteria (FIG. 2).
As a control, the negative control (unrelated) peptide Bac429 and parent peptide Bac2A (=Bac001) were used in several different wells of the microtiter plate. Luminescence (relative light units; RLU) was measured at 14 different time points, 9 of which are shown. To permit comparison of the data with the free peptide data set, the result for each peptide was classified into six different groups, like the data set with the free peptides (Table 2). […] For the soluble peptides the following classes were established: […]

Substance: RRAAVVLIVIRR-NH2 (C-terminus assumed) [Bac020]
- Luminescence at the given time in minutes: 0 (cellulose-bound peptide, 0 min): 5285 RLU
- Luminescence at the given time in minutes: 20 (cellulose-bound peptide, 20 min): 4935 RLU
- Luminescence at the given time in minutes: 40 (cellulose-bound peptide, 40 min): 145 RLU
- Luminescence at the given time in minutes: 60 (cellulose-bound peptide, 60 min): 54 RLU
- Luminescence at the given time in minutes: 80 (cellulose-bound peptide, 80 min): 34 RLU
- Luminescence at the given time in minutes: 100 (cellulose-bound peptide, 100 min): 46 RLU
- Luminescence at the given time in minutes: 120 (cellulose-bound peptide, 120 min): 48 RLU
- Luminescence at the given time in minutes: 180 (cellulose-bound peptide, 180 min): 67 RLU
- Luminescence at the given time in minutes: 240 (cellulose-bound peptide, 240 min): 33 RLU
- Activity Class bound (uncleaved cellulose-bound peptides): 1 (Peptides reducing luminescence (lux) values to less than 500 after 40 min.)

From patent US20080207522A1, “Antimicrobial Peptides” (priority 2004, published 2008)
